## Results of single-concentration screens

From ChEMBL document CHEMBL3988442, “University of Dundee, Small-Polar-MMV Screening Library” (2021).

The filed quantity is “Percent Effect” (%). How 0% and 100% were set is not recorded. Most values in the screen are low, and negative values occur. This is an unselected part of the compounds tested. Two or more numbers in one place are separate tests of the same structure; such repeats can differ widely. A dash means the value is not listed here; it may have been measured.

A: 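Whole-parasite assay of Trypanosoma brucei over 72 hours; the read-out is not stated. Concentration: 30 µM. The record gives no direction; compounds that gave an IC50 in retests scored well above the rest, so higher reads as stronger inhibition. Values scatter widely below zero; nearly all retest evidence comes from the higher of the two concentrations used. About 64,000 compounds were tested under these conditions; 1.5% (about 940) showed 50% or more at least once.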
B: 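Cell assay of Leishmania donovani living inside macrophages; the read-out is not stated. Compounds at 30 µM. The record gives no direction; compounds that gave an IC50 in retests scored well above the rest, so higher reads as stronger inhibition. Of about 69,000 compounds tested this way, about 1,000 (1.5%) reached 50% or more in at least one test.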

structure | A | B
Cc1ccoc1-c1nnc(CNCC2CCCN2c2cccnn2)o1 (stereo not given) | 37.6 | -17.44
CCc1nnc(SCc2nonc2C)n1C1CC1 | -0.3203 | -14.99
CCOc1ccc(S(=O)(=O)N(CCOC)Cc2ccoc2)cc1F | -29.46 | -14.5
CN(C)c1nccc(CNS(=O)(=O)c2cc(Cl)cc(Cl)c2)n1 | -26.61 | -17.85
CC(C)CS(=O)(=O)Nc1ccc2c(c1)OCC(C)(C)C(=O)N2C | -15.71 | -17.18
Cc1cnn(CC2CN(Cc3nnc(-c4occc4C)o3)CCO2)c1 (stereo not given) | 22.06 | 29.52
CCOC(=O)C1CCCN(c2nccc(-n3nc(C)cc3C)n2)C1 (stereo not given) | -15.24 | 29.94
CCCN(CC(=O)NC)C(=O)c1ccc(-c2ccsc2)nc1C | 1.198 | 22.37
CC(C)(C)c1nc(CN(Cc2cccs2)C2CCS(=O)(=O)C2)cs1 (stereo not given) | -3.023 | 32.15
CC(C)CN1CCN(C(=O)c2cccnc2-n2cncn2)CC1 | -88.14 | 11.15
CNS(=O)(=O)Cc1cccc(CNC(=O)Nc2cn[nH]c2)c1 | -22.34 | 27.35
CCn1ccc(-c2cc(C(=O)O)n3ncc(Cl)c3n2)n1 | -34.23 | -39.85
Cc1ccc(CN2C(=O)CCC2C(=O)Nc2cnn(C)c2)o1 (stereo not given) | -0.59 | 8.28
[H][C@@]12CCN(S(=O)(=O)CC)CC[C@]1([H])[C@H](COCC1CC1)CN(C)C2=O | -17.65 | 0.2396
Oc1ccc2oc3c(c2c1CN1CCOCC1)CCCC3 | -24.52 | 27.1
CC(C(=O)Nc1ccc(N2CCCC2)nc1)n1cccn1 (stereo not given) | -13.4 | 19.04
[H][C@]12CC[C@]([H])(CN(Cc3cscn3)C1)N(C(=O)c1cccc(COC)n1)C2 | -49.27 | -20.9
COc1ccc(C(=O)NCCCn2ccnc2)c(OC)n1 | -11.29 | 10.91
Cc1c(NCC(C)(C)C)cccc1C(=O)N(C)Cc1ncnn1C | -13.15 | -44.72
O=C(c1ccco1)N1CCCn2cnc(COCC3CC3)c2C1 | -21.32 | -11.68
CCOCCNC(=O)Cc1cccc(I)c1 | 11.45 | 3.119
c1csc(CN2CCCN(c3ccc(Cn4ccnc4)cn3)CC2)c1 | 25.44 | 43.35
[H][C@]12CCCCN1CCC[C@@]2(O)CNCC1(Cn2cccn2)CC1 | 17.98 | 28.54
c1csc(N2CCCN(Cc3nc(C4CC4)no3)CC2)n1 | -0.1434 | 1.419
Cc1cnn(CC2CCCN2C(=O)c2cccc(-n3cnnn3)c2)c1 (stereo not given) | -36.42 | -2.735
O=c1c2cnc(N3CCCCC3)nc2ccn1-c1ccccc1F | -44.8 | 5.899
c1cnn(-c2ccc(CN3CCCC(Cn4cncn4)C3)cc2)c1 (stereo not given) | - | 23.63
Cc1ccc(-c2nnc(CN3CCCC(O)(CO)CC3)o2)n1C (stereo not given) | -12.9 | 45.1
Cn1cc(C2CC(=O)NC23CCN(Cc2nccs2)CC3)cn1 (stereo not given) | -12.82 | 4.653
COc1ccc(COCC(O)CNC(=O)c2cccc(OC)c2)cc1 (stereo not given) | 4.052 | 8.222
Cc1ccccc1C1(C(=O)N2CCCC(n3cncn3)C2)CC1 (stereo not given) | -19.38 | -6.101
Cc1csc(CN(C)CCCOc2cccc(C#N)c2)n1 | -10.79 | -44.52
CNC(=O)c1cn2cc(-c3cccc(Cl)c3)n(CC3CC3)c(=O)c2n1 | -41.71 | -37.09
COc1ccccc1N1CCC(N2CCOCC(CO)C2)CC1 (stereo not given) | -46.19 | 2.59
CS(=O)(=O)NCc1nnc2n1CCN(Cc1cccs1)C2 | - | 17.49
CC(C)(C)C(=O)NCC(=O)NCCc1nc(C(F)(F)F)cs1 | 4.241 | 11.29
COCC(=O)Nc1cc(Br)cnc1OCC(F)(F)F | -19.38 | 9.828
Cc1ccnc(NCCNC(=O)CCNC(=O)c2ccccc2F)c1 | -34.85 | 25.05
[H][C@]12CC[C@]([H])(CN(c3nccc(NC)n3)C1)N(CCOC)C2=O | -13.56 | 33.82
CN(C(=O)c1ccco1)c1nc2c(s1)CCCC2 | - | 6.976
[H][C@]12CN(C(=O)CC3CCCC3)CCN1C[C@@H](CO)[C@@H]2c1ccccc1 | -21.57 | -17.25
O=C(N[C@@H]1CN(CCc2ccc(F)cc2)C[C@H]1O)c1cscn1 | 8.587 | 24.3 and 6.529
Cc1cnc(C(=O)N2CCCC(n3cccn3)C2)cn1 (stereo not given) | -15.85 | -23.68
Cc1nccn1C1CCCN(C(=O)c2ccc3c(c2)CCC3)C1 (stereo not given) | -19.52 | 18.49
N#Cc1ccc(OCCOc2ccccc2C(=O)N2CCOCC2)cc1 | 2.131 | 10.94
CNS(=O)(=O)CC1CCCN1c1ccc(Cl)cn1 (stereo not given) | -29.37 | 24.17
CCc1nc(CCNC(=O)Nc2cc(C(N)=O)sc2C)cs1 | -77.98 | -11.97
CC(C(=O)N1CCCN(Cc2cscn2)CC1)N1CCOCC1 (stereo not given) | - | 20.11
COc1cccc(CNc2nnc(C(C)(C)C)o2)c1OC | -28.11 | 32.18
CC(C)(C)C(O)CCNC(=O)c1ccc(F)cc1Cl (stereo not given) | 16.51 | -7.362 and 25.06
Cc1cc(Br)c(O)c(-c2nc(N3CCCCC3)sc2C)c1 | 21.31 | 10.34
CN1CCN(Cc2nnc(C3CCN(S(C)(=O)=O)CC3)n2C)CC1 | -24.55 | -43.23
[H][C@]12CC[C@]([H])(CN(C(=O)CCc3n[nH]c4c3CCCC4)C1)N(CC1CC1)C2 | 15.27 | 11.89
O=C(O)C(F)(F)F.[H][C@@]12OCCN(CC3CC3)[C@@]1([H])CC[C@H]2OCC1CCOCC1 | -19.73 | 34.43
CC(Nc1ccc(CCN2CCOCC2)cc1)C(=O)N(C)CCC#N (stereo not given) | -56.01 | 13.04
O=C(CCSc1ccccc1F)N1CCN(c2cnccn2)CC1 | 98.54 | -0.8269
CCN(Cc1ccc(Cl)c(Cl)c1)C(=O)CCn1cncn1 | -0.8185 | -9.851
[H][C@@]12CNCC[C@]1(O)CCN(c1ncccc1Cl)C2 | -0.2389 | 16.6
CC(NCc1ccccc1Br)c1ccc2[nH]c(=O)[nH]c2c1 (stereo not given) | 8.503 | 28.55
[H][C@]12CC[C@]([H])(CN(C(=O)CCc3n[nH]c(C)c3C)C1)N(CCOC)C2=O | -32.66 | 6.813 and 4.967
Cc1n[nH]c(C2CN(C(=O)c3ccc4c(c3)COC4)CCO2)n1 (stereo not given) | -52.08 | -17.15
O=C1CC(NCc2cnc(C3CCCCC3)nc2)CN1c1ccccc1 (stereo not given) | -4.102 | 18.73
CCc1noc(C(C)N2CCC(O)CC2)n1 (stereo not given) | 16.08 | 11.42
CN(C)Cc1nn(C)c2c1CCN(C(=O)c1cnccn1)C2.O=C(O)C(F)(F)F | -232.2 | -3.197
COCC(=O)NCCC(=O)N1CCN(S(=O)(=O)c2ccc(Br)cc2)CC1 | -18.56 | 2.104
CC(C)Oc1ncccc1CNC(=O)N1CCC1 | -18.33 | 14.52
Cc1cc(N2CCOC(c3ccccn3)C2)nc(N)n1 (stereo not given) | -4.667 | 8.621
CN(C)c1cccc(C2CCN(c3ncccn3)CC2)n1 | - | -0.7823
Cc1cnc(NC(C)Cc2cccnc2)nc1N(C)C (stereo not given) | 4.093 | 19.58
CCCc1noc(CN(C)Cc2ccc3c(c2)OCO3)n1 | -18.44 | -14.64
O=C(CCn1c(C(F)F)cc2cccnc21)NC1CC1 | -7.629 | -14.89
O=C(Cc1noc(C(=O)NCC2CC2)n1)Nc1cccc(C(F)(F)F)c1 | 1.517 | 23.36
Cc1nn(C)c2c(NCc3ccccc3F)nc(C3CC3)nc12 | 42.74 | 27.39
Cn1nc2c(cc1=O)CN(Cc1nc(-c3ccoc3)no1)CC2 | -6.559 | 23.86
Cc1[nH]c2c(F)cccc2c1CC(=O)NCCCNc1cccnc1 | -16.41 | 15.28
[H][C@]12CCCC(=O)N[C@@]1(C)CCCCN2C(=O)CCn1nccc1C | 3.347 | 4.69
Fc1cccc(N2CCc3ncnc(N4CCOCC4)c3CC2)c1 | -25.89 | 35.13
Cc1ccc(NC(=O)c2cccc(N(C)C)c2)nc1 | -17.92 | 30.53
Cc1ccc(F)cc1S(=O)(=O)NCc1cccnc1N(C)C | 5.267 | 42.81
CC(=O)NC(=O)C1(CCCc2ccncc2)CCN1 (stereo not given) | -21.23 | -12.54
CC(CCc1ccccc1)NC(=O)CN1CCOCC1 (stereo not given) | -10.14 | 10.45
Cc1n[nH]c(C2CN(CCCOc3ccc(F)cc3)CCO2)n1 (stereo not given) | -42.37 | -6.587
Cc1cccc(CN2CCCC(O)(CNCc3ncccc3C)C2=O)c1 (stereo not given) | 23.62 | 22.38